This continues a long series; more values of the same kind are listed elsewhere.
Tested on: 22Rv1 cells
Experiment: Global proteome analysis (LC-MS/MS, DIA) of differentially expressed proteins
Type: cell-based, human
Experimental: 22Rv1 cells were seeded in T75 culture bottles (4 × 10^6 cells/bottle in 20 mL/bottle), treated for 48 h with the 5 µM of compound 11 or vehicle (DMSO), harvested by scratching, washed twice with ice-cold PBS and flash-frozen. Cells were lysed and sonicated. The protein extracts were then heat-denaturated, reduced, alkylated and digested by trypsin. Peptides were chromatographically separated using full recovery autosampler vials and a nano-UPLC system (Acquity, Waters Corporation, Milford, MS, USA), coupled via electrospray ionization (ESI) to a tandem mass spectrometer equipped with a quadrupole and an orbitrap (QExactive, Thermo Fisher Scientific, Bremen, Germany), using MS/MS mode in data dependent acquisition (DDA) and data independent acquisition (DIA). The peptides, analyzed with DDA-LC-MS/MS, were identified with the search engine Sequest, integrated in the Proteome Discoverer software version 2.0 (Thermo Fischer Scientific) using the human Uniprot protein database (EMBL; Hinxton Cambridge, UK, release December 2018). […] For the details of sample preparation and proceeding, data acquisition and analysis see the Supplementary information. […]
serum (FBS, Invitrogen) and 1% penicillin/streptomycin (Invitrogen)). […]
Cell lines were lysed in 100 mM triethylammonium bicarbonate and 1% w/v sodium deoxycholate buffer followed by probe sonication to destroy polynucleotides and heat induce protein denaturing at 99 °C for 5 min. Protein concentrations were estimated with a bicinchonic acid (BCA) protein assay (Thermo Fisher Scientific, Bremen, Germany). 20 µg of protein were reduced in presence of 10 mM dithiotreithol (Sigma Aldrich) for 30 min at 60 °C followed by cysteine alkylation with 20 mM iodo acetamide (Sigma Aldrich) for 30 min at 37 °C in the dark and enzymatic degradation with sequencing grade trypsin (Promega) over night at 37 °C. Digestion was quenched with 1% formic acid (FA), precipitated sodium deoxycholate removed by centrifugation for 5 min at 14,000 g and the supernatant was dried in a vacuum centrifuge.
LC-MS/MS in Data Dependent and Data Independent Mode
Samples were resuspended in 0.1% FA and transferred into a full recovery autosampler vial (Waters). Chromatographic separation was achieved on a nano -UPLC system (Acquity, Waters Corporation, Milford, MS, USA) with a two-buffer-system (buffer A: 0.1% FA in water, buffer B:
0.1% FA in Acetonitrile (ACN), both at pH = 3). Attached to the UPLC was a reversed -phase peptide trapping column (Symmetry C18, 180 µm × 20 mm, 100 Å pore size, 5 µm particle size) for desalting, followed by a reversed-phase capillary separation of the tryptic peptides (BEH C18; 75 µm × 200 mm, 130 Å pore size, 1.7 µm particle size), using a 60 min gradient with increasing ACN concentration from 2–30% ACN. The eluting peptides were analyzed on a quadrupole-orbitrap mass spectrometer (QExactive, Thermo Fisher Scientific, Bremen, Germany) in data dependent acquisition (DDA) and data independent acquisition (DIA) for quantification.
In DDA mode, one replicate of each cell line was randomly chosen and 1 µg per sample was used per LC-MS/MS run to build a reference spectral library used for data extraction of samples acquired in DIA mode. For DDA, the 12 most intense ions per precursor scan (1 × 10 6 ions, 70,000 Resolution, 120 ms fill time) were analyzed by MS/MS (HCD at 25 normalized collision energy, 1 × 105 ions, 17,500 Resolution, 50 ms fill time) in a range of 400–1300 m/z. A dynamic precursor exclusion of 20 s was used. For DIA, 1 µg of each sample was analyzed using a 30 sequential 20 Da fixed window method covering the mass range from 400 –1000 m/z. Per cycle, 2 precursor scans (1 × […]
28 normalized collision energy, 1 × 106 ions, 17,500 Resolution, 50 ms fill time) were performed.
After the first precursor scan, 15 MS/MS scans were performed covering the precursor mass range from 400–700 m/z followed by the second precursor scan and another 15 MS/MS scans ranging from […]
LC-MS/MS Data Processing and Analysis […]

CC1(C)OC2OC(C(O)COC3=CC(=O)c4cccc(O)c4C3=O)C(O)C2O1 (stereo not drawn) [Compound 11]
Fold change (treated / control) (protein PTCD3_HUMAN (Q96EY7)): 0.8017 | Fold change (treated / control) (protein PYC_HUMAN (P11498)): 0.7167 | Fold change (treated / control) (protein PYR1_HUMAN (P27708)): 0.8386 | Fold change (treated / control) (protein RAB13_HUMAN (P51153)): 0.5414 | Fold change (treated / control) (protein RBBP4_HUMAN (Q09028)): 0.7477 | Fold change (treated / control) (protein RBM3_HUMAN (P98179)): 0.4156 | Fold change (treated / control) (protein RBM15_HUMAN (Q96T37)): 0.6754 | Fold change (treated / control) (protein RFC1_HUMAN (P35251)): 0.5451 | Fold change (treated / control) (protein RIR1_HUMAN (P23921)): 0.7104 | Fold change (treated / control) (protein RL3_HUMAN (P39023)): 0.765 | Fold change (treated / control) (protein RL5_HUMAN (P46777)): 0.7312 | Fold change (treated / control) (protein RL7A_HUMAN (P62424)): 0.6916 | Fold change (treated / control) (protein RL8_HUMAN (P62917)): 0.705 | Fold change (treated / control) (protein RL9_HUMAN (P32969)): 0.3596 | Fold change (treated / control) (protein RL17_HUMAN (P18621)): 0.7086 | Fold change (treated / control) (protein RL18_HUMAN (Q07020)): 0.4989 | Fold change (treated / control) (protein RL21_HUMAN (P46778)): 0.7748 | Fold change (treated / control) (protein RL24_HUMAN (P83731)): 0.7258 | Fold change (treated / control) (protein RL29_HUMAN (P47914)): 0.5022 | Fold change (treated / control) (protein RL30_HUMAN (P62888)): 0.5421 | Fold change (treated / control) (protein RL31_HUMAN (P62899)): 0.4309 | Fold change (treated / control) (protein RL36L_HUMAN (Q969Q0)): 0.4658 | Fold change (treated / control) (protein RM15_HUMAN (Q9P015)): 0.5026 | Fold change (treated / control) (protein RM16_HUMAN (Q9NX20)): 0.5171 | Fold change (treated / control) (protein RM17_HUMAN (Q9NRX2)): 0.5436 | Fold change (treated / control) (protein RM19_HUMAN (P49406)): 0.6745 | Fold change (treated / control) (protein RM37_HUMAN (Q9BZE1)): 0.5246 | Fold change (treated / control) (protein RM38_HUMAN (Q96DV4)): 0.7528 | Fold change (treated / control) (protein ROA1_HUMAN (P09651)): 0.6844 | Fold change (treated / control) (protein RPAB4_HUMAN (P53803)): 0.7108 | Fold change (treated / control) (protein RPB2_HUMAN (P30876)): 0.4541 | Fold change (treated / control) (protein RS3A_HUMAN (P61247)): 0.7836 | Fold change (treated / control) (protein RS3_HUMAN (P23396)): 0.7838 | Fold change (treated / control) (protein RS4X_HUMAN (P62701)): 0.7316 | Fold change (treated / control) (protein RS5_HUMAN (P46782)): 0.7012 | Fold change (treated / control) (protein RS8_HUMAN (P62241)): 0.7705 | Fold change (treated / control) (protein RS11_HUMAN (P62280)): 0.7006 | Fold change (treated / control) (protein RS14_HUMAN (P62263)): 0.6832 | Fold change (treated / control) (protein RS20_HUMAN (P60866)): 0.8472 | Fold change (treated / control) (protein RS25_HUMAN (P62851)): 0.7448 | Fold change (treated / control) (protein RS27A_HUMAN (P62979)): 0.7954 | Fold change (treated / control) (protein RT07_HUMAN (Q9Y2R9)): 0.6784 | Fold change (treated / control) (protein RT18A_HUMAN (Q9NVS2)): 0.5156 | Fold change (treated / control) (protein RT18B_HUMAN (Q9Y676)): 0.3594 | Fold change (treated / control) (protein RT22_HUMAN (P82650)): 0.7257 | Fold change (treated / control) (protein RT23_HUMAN (Q9Y3D9)): 0.4341 | Fold change (treated / control) (protein RT27_HUMAN (Q92552)): 0.5557 | Fold change (treated / control) (protein RT28_HUMAN (Q9Y2Q9)): 0.6729 | Fold change (treated / control) (protein RT34_HUMAN (P82930)): 0.3998 | Fold change (treated / control) (protein RU17_HUMAN (P08621)): 0.7694 | Fold change (treated / control) (protein S35B2_HUMAN (Q8TB61)): 0.6783 | Fold change (treated / control) (protein S39A7_HUMAN (Q92504)): 0.3788 | Fold change (treated / control) (protein SARNP_HUMAN (P82979)): 0.7452 | Fold change (treated / control) (protein SDF2L_HUMAN (Q9HCN8)): 0.8547 | Fold change (treated / control) (protein SDHB_HUMAN (P21912)): 0.4112 | Fold change (treated / control) (protein SF3B1_HUMAN (O75533)): 0.8384 | Fold change (treated / control) (protein SLD5_HUMAN (Q9BRT9)): 0.7628 | Fold change (treated / control) (protein SMC1A_HUMAN (Q14683)): 0.7088 | Fold change (treated / control) (protein SMD1_HUMAN (P62314)): 0.7686 | Fold change (treated / control) (protein SMRC2_HUMAN (Q8TAQ2)): 0.751 | Fold change (treated / control) (protein SND1_HUMAN (Q7KZF4)): 0.6826 | Fold change (treated / control) (protein SNF5_HUMAN (Q12824)): 0.7197 | Fold change (treated / control) (protein SP16H_HUMAN (Q9Y5B9)): 0.7259 | Fold change (treated / control) (protein SSNA1_HUMAN (O43805)): 0.6754 | Fold change (treated / control) (protein STEA2_HUMAN (Q8NFT2)): 0.3512 | Fold change (treated / control) (protein SUCB1_HUMAN (Q9P2R7)): 0.8325 | Fold change (treated / control) (protein SUCB2_HUMAN (Q96I99)): 0.8543 | Fold change (treated / control) (protein SUMO2_HUMAN (P61956)): 0.1159 | Fold change (treated / control) (protein SYAC_HUMAN (P49588)): 0.5085 | Fold change (treated / control) (protein SYAM_HUMAN (Q5JTZ9)): 0.5065 | Fold change (treated / control) (protein SYDM_HUMAN (Q6PI48)): 0.6768 | Fold change (treated / control) (protein SYF1_HUMAN (Q9HCS7)): 0.4892 | Fold change (treated / control) (protein SYPH_HUMAN (P08247)): 0.8591 | Fold change (treated / control) (protein SYQ_HUMAN (P47897)): 0.8152 | Fold change (treated / control) (protein SYTM_HUMAN (Q9BW92)): 0.4662 | Fold change (treated / control) (protein SYVC_HUMAN (P26640)): 0.8291 | Fold change (treated / control) (protein TBB4B_HUMAN (P68371)): 0.7221 | Fold change (treated / control) (protein TE2IP_HUMAN (Q9NYB0)): 0.8607 | Fold change (treated / control) (protein TEBP_HUMAN (Q15185)): 0.8374 | Fold change (treated / control) (protein TECR_HUMAN (Q9NZ01)): 0.7078 | Fold change (treated / control) (protein TFB2M_HUMAN (Q9H5Q4)): 0.6991 | Fold change (treated / control) (protein THIL_HUMAN (P24752)): 0.7393 | Fold change (treated / control) (protein THTR_HUMAN (Q16762)): 0.4968 | Fold change (treated / control) (protein TIM13_HUMAN (Q9Y5L4)): 0.5414 | Fold change (treated / control) (protein TM205_HUMAN (Q6UW68)): 0.723 | Fold change (treated / control) (protein TMX1_HUMAN (Q9H3N1)): 0.7963 | Fold change (treated / control) (protein TOM34_HUMAN (Q15785)): 0.4323 | Fold change (treated / control) (protein TOP2A_HUMAN (P11388)): 0.2459 | Fold change (treated / control) (protein TOP2B_HUMAN (Q02880)): 0.7139 | Fold change (treated / control) (protein TR112_HUMAN (Q9UI30)): 0.7955 | Fold change (treated / control) (protein TRAP1_HUMAN (Q12931)): 0.8199 | Fold change (treated / control) (protein TSN8_HUMAN (P19075)): 0.3645 | Fold change (treated / control) (protein U520_HUMAN (O75643)): 0.8108 | Fold change (treated / control) (protein UBE2T_HUMAN (Q9NPD8)): 0.4008 | Fold change (treated / control) (protein UBF1_HUMAN (P17480)): 0.7121 | Fold change (treated / control) (protein VGF_HUMAN (O15240)): 0.5125 | Fold change (treated / control) (protein VKOR1_HUMAN (Q9BQB6)): 0.7313 | Fold change (treated / control) (protein WDR36_HUMAN (Q8NI36)): 0.8098 | Fold change (treated / control) (protein YTHD2_HUMAN (Q9Y5A9)): 0.6968 | Fold change (treated / control) (protein ZBT10_HUMAN (Q96DT7)): 0.5298 | Fold change (treated / control) (protein ZC11A_HUMAN (O75152)): 0.7642 | Fold change (treated / control) (protein ZFPL1_HUMAN (O95159)): 0.7601
